PubChem BioAssay AID1159584 | Peter MacCallum Cancer Centre, 2016
Here is one part, drawn at random, of about 18,000 deposited reagents. The numbers tell different reagents against one gene apart. Reagent sequences are not shown. The record does not give: the amount of reagent, the time to read-out.

Aim: 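Knock-downs that harm CDH1-null cells more than parental MCF10A cells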 (primary screen)
Cells: human MCF10A breast epithelial cells, parental and CDH1-null
Reagent: siRNA against human genes
Measurement: 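Cell viability by CellTiter-Glo ATP luminescence, each line scaled to the mean of mock wells across plates, then CDH1-null over parental ratio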
Scale: CDH1-null / parental viability ratio: higher = CDH1-null cells survive relatively better than parental; CDH1-null viability vs mock: higher = more viable CDH1-null cells; parental viability vs mock: higher = more viable parental cells

| gene | siRNA no. | CDH1-null / parental viability ratio | CDH1-null viability vs mock (fraction of mock) | parental viability vs mock (fraction of mock) |
| --- | --- | --- | --- | --- |
| TMEM171 (GeneID 134285) | 1 | 1.29 | 0.54 | 0.42 |
| FBXL18 (GeneID 80028) | 1 | 1.04 | 1.08 | 1.04 |
| PPFIA2 (GeneID 8499) | 1 | 1.15 | 0.97 | 0.84 |
| PLA2G2E (GeneID 30814) | 1 | 0.87 | 0.45 | 0.52 |
| RHOD (GeneID 29984) | 1 | 0.87 | 0.9 | 1.04 |
| SLC25A26 (GeneID 115286) | 1 | 1.38 | 0.44 | 0.32 |
| SHC2 (GeneID 25759) | 1 | 0.96 | 0.7 | 0.73 |
| BNC2 (GeneID 54796) | 1 | 0.75 | 0.6 | 0.8 |
| CCDC24 (GeneID 149473) | 1 | 0.82 | 0.67 | 0.82 |
| KAT6B (GeneID 23522) | 1 | 0.9 | 0.94 | 1.04 |
| MPP3 (GeneID 4356) | 1 | 0.72 | 0.72 | 1 |
| KIF3C (GeneID 3797) | 1 | 1.07 | 1.02 | 0.95 |
| PRDM14 (GeneID 63978) | 1 | 0.82 | 0.54 | 0.66 |
| GEMIN8 (GeneID 54960) | 1 | 1.06 | 0.89 | 0.84 |
| GTF2A1L (GeneID 11036) | 1 | 1.09 | 1.05 | 0.96 |
| GJA8 (GeneID 2703) | 1 | 0.88 | 0.76 | 0.86 |
| BANF1 (GeneID 8815) | 1 | 1.21 | 0.68 | 0.56 |
| PTHLH (GeneID 5744) | 1 | 1.56 | 0.5 | 0.32 |
| CCDC66 (GeneID 285331) | 1 | 0.85 | 0.73 | 0.86 |
| VHL (GeneID 7428) | 1 | 1.31 | 0.77 | 0.59 |
| LMCD1 (GeneID 29995) | 1 | 1.26 | 0.91 | 0.72 |
| POU2F3 (GeneID 25833) | 1 | 1.06 | 0.85 | 0.8 |
| GPN1 (GeneID 11321) | 1 | 1.59 | 0.7 | 0.44 |
| CTNNB1 (GeneID 1499) | 1 | 0.92 | 0.86 | 0.93 |
| CRYBB3 (GeneID 1417) | 1 | 1.09 | 0.72 | 0.66 |
| BKGD (GeneID 28970) | 1 | 0.95 | 0.89 | 0.94 |
| DDI2 (GeneID 84301) | 1 | 1.54 | 1.17 | 0.76 |
| DDI2 (GeneID 84301) | 2 | 1.09 | 0.94 | 0.86 |
| CDRT4 (GeneID 284040) | 1 | 0.86 | 0.57 | 0.66 |
| ETV1 (GeneID 2115) | 1 | 1.12 | 0.92 | 0.82 |
| PLEKHA4 (GeneID 57664) | 1 | 1.12 | 0.56 | 0.5 |
| OPTN (GeneID 10133) | 1 | 1.41 | 0.52 | 0.37 |
| WFDC11 (GeneID 259239) | 1 | 0.76 | 0.58 | 0.76 |
| PVRIG (GeneID 79037) | 1 | 0.79 | 0.73 | 0.92 |
| ESF1 (GeneID 51575) | 1 | 0.68 | 0.6 | 0.88 |
| RPS6KA5 (GeneID 9252) | 1 | 0.93 | 0.8 | 0.86 |
| MORF4L1 (GeneID 10933) | 1 | 1.67 | 0.87 | 0.52 |
| PLAGL2 (GeneID 5326) | 1 | 1.26 | 0.98 | 0.78 |
| LORICRIN (GeneID 4014) | 1 | 1 | 0.85 | 0.85 |
| EGR1 (GeneID 1958) | 1 | 1.09 | 1.02 | 0.94 |
| PRLH (GeneID 51052) | 1 | 0.78 | 0.57 | 0.73 |
| SLC18A1 (GeneID 6570) | 1 | 0.84 | 0.76 | 0.9 |
| LAMP2 (GeneID 3920) | 1 | 0.98 | 0.97 | 0.99 |
| ARL3 (GeneID 403) | 1 | 1.32 | 1.06 | 0.8 |
| PHF13 (GeneID 148479) | 1 | 0.99 | 0.94 | 0.95 |
| IQCK (GeneID 124152) | 1 | 0.89 | 0.73 | 0.82 |

6 of these entries, reformatted:
gene | siRNA no. | CDH1-null / parental viability ratio | CDH1-null viability vs mock (fraction of mock) | parental viability vs mock (fraction of mock)
KAT6B (GeneID 23522) | 1 | 0.9 | 0.94 | 1.04
MPP3 (GeneID 4356) | 1 | 0.72 | 0.72 | 1
KIF3C (GeneID 3797) | 1 | 1.07 | 1.02 | 0.95
PRDM14 (GeneID 63978) | 1 | 0.82 | 0.54 | 0.66
GEMIN8 (GeneID 54960) | 1 | 1.06 | 0.89 | 0.84
GTF2A1L (GeneID 11036) | 1 | 1.09 | 1.05 | 0.96
